Data as given in PubChem BioAssay AID1259424 (University of Nebraska Medical Center, 2018)

Purpose: 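Seek colon cancer survival genes behaving like KSR1, using a six-gene signature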 (primary screen)
Cells: human HCT116 colon cancer cells
Knock-down reagent: siRNA pool against human genes, 50 nM
Measured: 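Log2 levels of six mRNAs (branched-DNA multiplex), adjusted by two reference genes and the non-targeting median, then scored against the average KSR1 knockdown pattern as Pearson r and euclidean distance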
Scale: mean correlation with KSR1 profile and KSR1 correlation: higher = expression change more like KSR1 knockdown; mean distance from KSR1 profile: higher = expression change less like KSR1 knockdown
In all, the deposit lists about 14,000 reagents; shown is a part drawn at random. 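Higher correlation or smaller distance means closer resemblance to KSR1 loss; control wells, including KSR1 knockdowns, recur on many plates.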 Not given: the time to read-out.

Gene | mean correlation with KSR1 profile | mean distance from KSR1 profile | KSR1 correlation, replicate 1 | KSR1 correlation, replicate 2 | KSR1 correlation, replicate 3
PCDH20 (protocadherin 20) | -0.298 | 1.8 | -0.659 | -0.319 | -0.194
HRK (harakiri, BCL2 interacting protein) | 0.486 | 1.88 | 0.57 | 0.219 | 0.582
NPC1L1 (NPC1 like intracellular cholesterol transporter 1) | -0.0595 | 3.41 | -0.41 | -0.427 | -0.0616
EIF2S3 (eukaryotic translation initiation factor 2 subunit gamma) | -0.155 | 5.07 | -0.129 | -0.101 | -0.0552
SLC39A10 | 0.22 | 1.53 | 0.387 | 0.0229 | 0.217
EHF (ETS homologous factor) | 0.188 | 3.05 | 0.328 | 0.404 | 0.00287
OR8G2P (olfactory receptor family 8 subfamily G member 2 pseudogene) | 0.122 | 1.16 | -0.281 | 0.181 | 0.0388
HBS1L (HBS1 like translational GTPase) | 0.356 | 2.52 | 0.47 | 0.238 | 0.405
MSL2 (MSL complex subunit 2) | -0.827 | 7.42 | -0.717 | -0.724 | -0.628
RNF167 (ring finger protein 167) | -0.263 | 2.84 | 0.0281 | -0.279 | -0.543
ZRANB3 (zinc finger RANBP2-type containing 3) | 0.932 | 0.649 | 0.886 | 0.86 | 0.896
GFER (growth factor, augmenter of liver regeneration) | -0.425 | 2.47 | -0.143 | -0.433 | -0.476
OVOL1 (ovo like transcriptional repressor 1) | -0.148 | 1.84 | 0.16 | -0.0373 | -0.438

2 entries from above, reformatted:
MSL2 (MSL complex subunit 2)
- mean correlation with KSR1 profile: -0.827
- mean distance from KSR1 profile: 7.42
- KSR1 correlation, replicate 1: -0.717
- KSR1 correlation, replicate 2: -0.724
- KSR1 correlation, replicate 3: -0.628

RNF167 (ring finger protein 167)
- mean correlation with KSR1 profile: -0.263
- mean distance from KSR1 profile: 2.84
- KSR1 correlation, replicate 1: 0.0281
- KSR1 correlation, replicate 2: -0.279
- KSR1 correlation, replicate 3: -0.543

The results go on:
Gene | mean correlation with KSR1 profile | mean distance from KSR1 profile | KSR1 correlation, replicate 1 | KSR1 correlation, replicate 2 | KSR1 correlation, replicate 3
XK | 0.224 | 1.84 | 0.351 | 0.0114 | 0.293
RAB11B (RAB11B, member RAS oncogene family) | 0.374 | 2.39 | 0.211 | 0.337 | 0.525
DDI2 (DDI proteasomal shuttling factor 2) | 0.431 | 1.24 | 0.451 | 0.445 | -0.0673
PMFBP1 (polyamine modulated factor 1 binding protein 1) | 0.516 | 1.98 | 0.404 | 0.487 | 0.506
LDLRAD4 (low density lipoprotein receptor class A domain containing 4) | -0.245 | 2.71 | -0.209 | -0.163 | -0.484
PNRC1 (proline rich nuclear receptor coactivator 1) | 0.569 | 1.61 | 0.298 | 0.589 | 0.505
IL27RA (interleukin 27 receptor subunit alpha) | 0.701 | 1.85 | 0.751 | 0.724 | 0.571
